{
  "source": "paper PMC5951851",
  "binders": {"B1": {"name": "AGB1-HA (protein, UniProt P49177 1-377)", "chain": "MSVSELKERHAVATETVNNLRDQLRQRRLQLLDTDVARYSAAQGRTRVSFGATDLVCCRTLQGHTGKVYSLDWTPERNRIVSASQDGRLIVWNALTSQKTHAIKLPCAWVMTCAFSPNGQSVACGGLDSVCSIFSLSSTADKDGTVPVSRMLTGHRGYVSCCQYVPNEDAHLITSSGDQTCILWDVTTGLKTSVFGGEFQSGHTADVLSVSISGSNPNWFISGSCDSTARLWDTRAASRAVRTFHGHEGDVNTVKFFPDGYRFGTGSDDGTCRLYDIRTGHQLQVYQPHGDGENGPVTSIAFSVSGRLLFAGYASNNTCYVWDTLLGEVVLDLGLQQDSHRNRISCLGLSADGSALCTGSWDSNLKIWAFGGHRRVI"}},
  "target": "XLG2CTΔG4 (Arabidopsis thaliana)",
  "experiment": "co-IP; Arabidopsis protoplasts (Col-0 or rgs1-2) transfected, with or without 1 μM flg22 for 5 min, with or without co-expressed RGS1 variants; extraction buffer 50 mM HEPES pH 7.5, 150 mM KCl, 10 mM EDTA, 0.5% Triton X-100, 1 mM DTT; anti-FLAG M2 agarose, eluted with 3×FLAG peptide; anti-HA and anti-FLAG immunoblots",
  "note": "Results are given in words; binding and its absence hold for the method and conditions named. Binding seen in cells or lysates may run through a third protein. Binding can be weak; no strength is given. Tags and fused reporters may be left off the sequences shown.",
  "data": [
    {"binder": "B1", "values": [
      {"measurement": "binding", "result": "binds"}
    ]}
  ]
}
